PubChem BioAssay AID1259308 | NCATS, 2017

Assay: 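Candidate targets for better recombinant protein yield in mammalian cells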 (primary screen)
Cells: human HEK293 embryonic kidney cells stably expressing firefly luciferase (HEK-CMV-Luc2-Hygro)
Reagent: single siRNA against human genes, 0.8 pmol siRNA per well
Duration: 72 h
Read-out: 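Luciferase light (ONE-Glo) measured on one replicate plate set and viability (CellTiter-Glo) on the other, scaled to a negative control siRNA, with robust z-scores and luciferase per cell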
Reading the numbers: total luciferase, z-score and total luciferase, % of control: higher = more reporter protein produced; luciferase per cell, z-score: higher = more reporter output per viable cell; viable cells, % of control: higher = more viable cells
Hit rule: 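Active when the median/MAD z-score for overall luciferase is greater than 3; a gene was taken forward for validation with new siRNAs if at least two of its three siRNAs passed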
Calls: active = raised luciferase; inactive = no rise
Shown is a random part of about 59,000 reagents tested. Over the whole deposit, about 1,510 (2.6%) got an active call. 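Calls use total luciferase alone and ignore viability, so some active siRNAs may act by altering cell number.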 Reagents against one gene are numbered here.

target	siRNA no.	total luciferase, z-score	total luciferase, % of control	luciferase per cell, z-score	viable cells, % of control	Call
PPP4R4	1	1.3	108	1.36	84.2	inactive
PPP4R4	2	1.29	107	0.547	104	inactive
PPP4R4	3	-1.72	47.7	-1.08	70.9	inactive
ITGAE	1	-0.168	78.5	-0.216	92.9	inactive
ITGAE	2	0.426	90.4	0.404	90.8	inactive
ITGAE	3	1.51	112	1.14	92.5	inactive
CCDC159	1	-0.74	67.2	-1.57	113	inactive
CCDC159	2	-0.533	71.3	-0.883	100	inactive
CCDC159	3	1.21	106	0.59	101	inactive
SYTL3	1	-0.141	79.1	-0.0153	88.7	inactive
SYTL3	2	-0.629	69.4	-0.805	95.8	inactive
SYTL3	3	-0.657	68.8	-0.531	88.4	inactive
MIX23	1	-0.597	70	-0.32	85.1	inactive
MIX23	2	4.57	173	3.72	72.5	active
MIX23	3	-1.17	58.6	0.111	63.6	inactive
SPAST	1	-1.47	52.6	-2.08	102	inactive
SPAST	2	-0.228	77.4	-0.647	102	inactive
SPAST	3	-0.123	79.4	-0.757	108	inactive
ALDH9A1	1	-0.192	78.1	-0.693	105	inactive
ALDH9A1	2	-0.661	68.7	-0.536	88.5	inactive
ALDH9A1	3	-0.813	65.7	-0.185	77.1	inactive
MYCL	1	1.67	115	1.88	78.3	inactive
MYCL	2	-0.994	62.1	-1.14	93.7	inactive
MYCL	3	-0.483	72.3	-0.258	86.5	inactive
NDFIP2	1	-1.03	61.3	-0.461	77.4	inactive
NDFIP2	2	-0.7	68	-0.799	93.7	inactive
NDFIP2	3	0.357	89	0.285	92.2	inactive
PMS2P2	1	2.73	136	2.14	86.6	inactive
PMS2P2	2	-0.213	77.6	-0.139	90	inactive
PMS2P2	3	-0.125	79.4	-0.816	110	inactive
SELENOH	1	1.39	110	1.23	88.5	inactive
SELENOH	2	-0.99	62.2	-0.969	89.7	inactive
SELENOH	3	2.79	137	2.68	75.8	inactive
RARB	1	0.204	85.9	-0.768	118	inactive
RARB	2	0.0649	83.2	-0.172	97.3	inactive
RARB	3	-1.06	60.7	-1.34	96.5	inactive
CCDC138	1	-0.357	74.8	0.423	74.8	inactive
CCDC138	2	2.83	138	1.94	92.6	inactive
CCDC138	3	-0.886	64.3	0.287	66.6	inactive
CIBAR1	1	1.31	108	0.643	102	inactive
CIBAR1	2	0.298	87.8	-0.523	113	inactive
CIBAR1	3	0.481	91.4	0.0155	102	inactive
PTTG1IP	1	-2.16	39	-1.97	73	inactive
PTTG1IP	2	-0.509	71.8	-0.466	90.7	inactive
PTTG1IP	3	-0.259	76.7	-0.13	88.7	inactive
MBIP	1	0.142	84.7	-0.381	105	inactive
MBIP	2	0.687	95.6	0.18	102	inactive
MBIP	3	0.901	99.8	0.734	91.9	inactive
NUP153	1	0.571	93.3	2.4	55.3	inactive
NUP153	2	2.95	140	2.51	81.1	inactive
NUP153	3	2.06	123	1.97	81.7	inactive
RPL21P68	1	-2.15	39.2	-1.74	69.3	inactive
RPL21P68	2	-0.208	77.8	-0.0489	88	inactive
RPL21P68	3	-1.61	49.9	-1.3	78.4	inactive
FADS3	1	-1.75	47	-1.89	86.4	inactive
FADS3	2	-0.343	75.1	-0.723	101	inactive
FADS3	3	1.1	104	0.876	92.1	inactive

Sorted by “luciferase per cell, z-score” (high to low): 4 of the entries above
target	siRNA no.	total luciferase, z-score	total luciferase, % of control	luciferase per cell, z-score	viable cells, % of control	Call
MIX23	2	4.57	173	3.72	72.5	active
MIX23	3	-1.17	58.6	0.111	63.6	inactive
SPAST	2	-0.228	77.4	-0.647	102	inactive
SPAST	1	-1.47	52.6	-2.08	102	inactive
